Some of the results follow. Shown are side measurements of this screen, not its main read-out; they come without a call. Most of these compounds were active or inconclusive in the main read-out, so they are no random draw. The note in brackets gives the kind of curve behind each potency; many fits are weak.
Assay: qHTS Assay for Lipid Storage Modulators in Drosophila S3 Cells;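 as to cell number change: cells counted by Cell Tracker Red CMTPX staining in the red channel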
Conditions: BODIPY lipid droplet fluorescence, 18-24 h; for cell number change: measured here: cell count max response, cells fed with added oleic acid
Method in brief: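 Drosophila S3 cells got compounds at several concentrations plus oleic acid (400 uM solution). Laser-scanning cytometry with 488 nm excitation read lipid droplets at 500-530 nm and cells at 575-640 nm. Percent activity was relative to 20 uM Triacsin C.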

[1] = measured here: cell number channel AC50, cells fed with added oleic acid
[2] = measured here: lipid fluorescence (Fed channel) AC50, cells fed with added oleic acid

Cc1ccc(S(=O)(=O)N(CC(=O)NCc2cccnc2)c2ccc(F)cc2)cc1
cell number change: 31.2% | AC50 [1]: 13 µM [rising, partial curve, poor fit] | AC50 [2]: 0.13 µM [rising, full curve]

c1cncc(CNc2ncnc3ccc(-c4ccc5c(c4)OCO5)cc23)c1
cell number change: -5.18%

O=C(COc1ccc(/C=N/NC(=O)c2cc3ccccc3o2)cc1Cl)Nc1ccccc1
cell number change: -55.6% | AC50 [1]: 2.59 µM [falling, full curve] | AC50 [2]: 4.61 µM [falling, full curve]

COc1ccccc1/C=C/C1(C(=O)NC2CCCC2)CC(=O)N1c1ccc(C)cc1 (stereo not drawn)
cell number change: -33.6% | AC50 [1]: 16.4 µM [falling, single point] | AC50 [2]: 16.4 µM [falling, single point]

C/C(=N/NC(=O)c1cc(-c2ccc(Br)s2)[nH]n1)c1ccco1
cell number change: -15.5% | AC50 [2]: 16.4 µM [falling, single point]

COc1ccc2oc(C(F)(F)C(F)F)cc(=O)c2c1
cell number change: 9.76% | AC50 [2]: 29.1 µM [rising, single point]

Cc1ccccc1NC(=S)NC(NC(=O)COc1ccccc1)C(Cl)(Cl)Cl (stereo not drawn)
cell number change: -34.9% | AC50 [1]: 11.6 µM [falling, partial curve, poor fit] | AC50 [2]: 8.2 µM [falling, partial curve, poor fit]

CCn1c(CCNC(=O)c2cccs2)nnc1SCC(=O)Nc1nc(-c2ccccc2)cs1
cell number change: -59.6% | AC50 [1]: 20.6 µM [falling, partial curve] | AC50 [2]: 18.4 µM [falling, partial curve]

Cc1nnc(NC(=O)c2nc(S(=O)(=O)Cc3ccccc3C)ncc2Cl)s1
cell number change: -29.6% | AC50 [1]: 0.058 µM [falling, full curve, poor fit]

COc1ccc(N=N/C(=C\O)C(=O)c2ccco2)cc1
cell number change: 22.9%

O=C(Nc1ccccc1C(=O)N/N=C/c1ccco1)c1ccc(Cl)cc1
cell number change: 11.5% | AC50 [2]: 3.26 µM [rising, partial curve]

O=C(COc1ccccc1[N+](=O)[O-])NCCCN1CCCC1=O
cell number change: 38.7% | AC50 [1]: 8.2 µM [rising, partial curve] | AC50 [2]: 6.51 µM [rising, full curve]

CC(C)COc1ccc(/C(O)=C2/C(=O)C(=O)N(CCN(C)C)C2c2ccncc2)cc1 (stereo not drawn)
cell number change: 3.64% | AC50 [1]: 0.461 µM [falling, full curve, poor fit] | AC50 [2]: 0.366 µM [falling, full curve]

Cc1cc(C)n(-c2ccc(C(=O)OCC(=O)NC(c3ccccc3)c3ccccc3)cc2)n1
cell number change: -5.31%

Cc1nnc(NC(=O)C2CCCN2S(=O)(=O)c2ccc(Cl)cc2)s1 (stereo not drawn)
AC50 [1]: 0.146 µM [falling, full curve, poor fit] | AC50 [2]: 29.1 µM [falling, single point]

COc1cc(/C=C2\SC(=S)N(NS(=O)(=O)c3ccc(C)cc3)C2=O)cc(OC)c1OC
cell number change: -2.77% | AC50 [1]: 1.84 µM [rising, partial curve, poor fit]

COc1cc2c(C(=O)N3CCN(c4ccccc4F)CC3)cn(C)c(=O)c2cc1OC
cell number change: -1.2% | AC50 [1]: 2.31 µM [rising, partial curve] | AC50 [2]: 2.31 µM [rising, full curve, poor fit]

COc1cccc(N(C(=O)c2snc(C(N)=O)c2N)C(C(=O)NCC2CCCO2)c2cccs2)c1 (stereo not drawn)
cell number change: -7.98%

c1csc(-c2nnc(COc3ccc4c(c3)OCO4)o2)c1
cell number change: 8.74%

Nc1nc(SCC(=O)Nc2ccccc2-c2ccccc2)n[nH]1
AC50 [1]: 2.91 µM [rising, single point]

O=C(NC1CCCC1)c1cc(-c2ccccc2)nc2ccccc12
cell number change: -8.01%

CC(Oc1ccccc1)C(=O)NC1=NCCS1 (stereo not drawn)
cell number change: 14.3% | AC50 [2]: 35.5 µM [rising, single point]

CCOC(=O)c1cccc(NC(=O)C2CCCN(S(=O)(=O)c3cnc[nH]3)C2)c1 (stereo not drawn)
cell number change: 19.5% | AC50 [2]: 0.184 µM [rising, full curve, poor fit]

CC(NS(=O)(=O)c1ccc(OCC(=O)Nc2cccc([N+](=O)[O-])c2)cc1)c1ccccc1 (stereo not drawn)
cell number change: 53.1% | AC50 [1]: 18.4 µM [rising, single point] | AC50 [2]: 3.26 µM [rising, partial curve]

O=C1OCC(c2ccccc2)=C1c1ccc(S(=O)(=O)N2CCOCC2)s1
cell number change: 5.35%

CCCCCc1cc(=O)oc2c(C(CCN3CCCC(C)C3)c3ccc(OC)cc3)c(OC)cc(OC)c12 (stereo not drawn)
cell number change: -77.6% | AC50 [1]: 29.1 µM [falling, single point]

O=C(NCc1ccco1)C1CCCN(c2ncnc3c2nc2n3CCCCC2)C1 (stereo not drawn)
cell number change: -2.29% | AC50 [2]: 3.66 µM [rising, single point]

CCOC(=O)C1CCN(C(=O)c2cn(-c3ccccc3)nc2-c2cccnc2)CC1
cell number change: 2.83%

Cc1ccc(SCC(=O)Nc2cc(C)on2)cc1
cell number change: 21.5% | AC50 [2]: 0.517 µM [falling, full curve, poor fit]

CCOC(=O)c1ccc(NC(=O)C2CCCN(S(=O)(=O)c3cnc[nH]3)C2)cc1 (stereo not drawn)
cell number change: 13.3% | AC50 [2]: 0.58 µM [rising, full curve, poor fit]

COc1ccc(N2CCN(C(=O)CCc3nnc4ccc(N5CCC(C)CC5)nn34)CC2)cc1
cell number change: -51% | AC50 [1]: 32.6 µM [falling, partial curve, poor fit] | AC50 [2]: 23.1 µM [falling, single point]

Cc1cc(=O)c2cc(C(=O)c3ccccc3)ccc2[nH]1
cell number change: -21.6% | AC50 [2]: 0.259 µM [falling, full curve, poor fit]

CCOC(=O)N/N=C(\C)c1ccc(-n2cnnn2)cc1
cell number change: 44% | AC50 [1]: 0.291 µM [rising, single point]

C/C(=C\C(=O)c1ccc(Br)cc1)NCc1ccc2c(c1)OCO2
AC50 [2]: 25.9 µM [falling, partial curve]

O=C(CCl)Nc1ccc(S(=O)(=O)Nc2nccs2)cc1
cell number change: -12.8% | AC50 [2]: 3.66 µM [rising, partial curve, poor fit]

CC1CCC(NC(=O)Cn2c(=O)oc3cc(S(=O)(=O)N4CCCC4)ccc32)CC1 (stereo not drawn)
cell number change: 16.8% | AC50 [2]: 11.6 µM [falling, partial curve]

CC(=O)c1cc(NC(=O)c2cccc(C(F)(F)F)c2)c(=O)oc1/C=C/N(C)C
AC50 [2]: 29.1 µM [rising, single point]

CCOC(=O)c1cccc(NC(=O)c2ccc3c(c2)C(=O)N(CC2CCCO2)C3=O)c1 (stereo not drawn)
cell number change: -23.4% | AC50 [2]: 6.51 µM [falling, full curve]

Cc1ccc(-c2cc(C(=O)N3CC(C)CC(C)C3)c3ccccc3n2)o1 (stereo not drawn)
cell number change: -14.3%

COc1ccc(C(=O)Nc2cnccn2)cc1[N+](=O)[O-]
cell number change: 6.03%

Brc1ccc(-c2nc(-c3ccccc3)no2)o1
cell number change: 219% | AC50 [1]: 18.4 µM [rising, partial curve] | AC50 [2]: 20.6 µM [rising, partial curve]

O=C(COC(=O)c1ccc(Br)o1)Nc1cccc(S(=O)(=O)N2CCCCCC2)c1
cell number change: 78% | AC50 [1]: 20.6 µM [rising, single point] | AC50 [2]: 29.1 µM [rising, single point]

Cc1cc(C)c(C#N)c(SCc2ccc3c(c2)OCO3)n1
cell number change: 0.947% | AC50 [2]: 1.84 µM [rising, full curve]

CCC(=O)N1CCc2cc(Br)cc(S(=O)(=O)NCc3ccco3)c21
cell number change: -58.5% | AC50 [1]: 29.1 µM [falling, single point] | AC50 [2]: 29.1 µM [falling, single point]

COC(=O)c1cnn(C(=O)c2cc(OC)ccc2Br)c1N
cell number change: -13.5% | AC50 [1]: 0.411 µM [rising, single point]

O=C(Cn1nnc(-c2ccccc2)n1)NC(=O)NC1CCCC1
cell number change: 21.9%

O=C(N=C1c2ccccc2CN1c1ccccc1)c1cccc([N+](=O)[O-])c1
cell number change: 29.3% | AC50 [1]: 2.91 µM [rising, full curve, poor fit] | AC50 [2]: 0.103 µM [rising, full curve, poor fit]

O=C(N/N=C\c1ccc(F)cc1)c1ccc(Cn2cc(Br)c([N+](=O)[O-])n2)o1
cell number change: 15.8% | AC50 [2]: 18.4 µM [rising, single point]

Cc1ccc(NC(=S)N2CCC(N(C)CC3CCCO3)CC2)c(C)c1 (stereo not drawn)
cell number change: 2.11% | AC50 [2]: 0.13 µM [falling, full curve, poor fit]

COc1ccc2[nH]c(=O)c(CN(C(=O)c3cccnc3)c3ccccc3)cc2c1
cell number change: 25.2% | AC50 [2]: 8.2 µM [rising, partial curve]

CCn1nc(C(=O)N[C@@H](CCSC)c2nc3ccccc3[nH]2)c2ccccc2c1=O
AC50 [1]: 6.51 µM [rising, single point] | AC50 [2]: 8.2 µM [rising, partial curve]

CCOC(=O)c1c(-c2ccccc2)[nH]c2ccc(O)cc12
cell number change: -4.33% | AC50 [2]: 18.4 µM [rising, single point]

COc1ccc(CCNC(=O)CSc2nnc(-c3ccccc3)o2)cc1OC
cell number change: -12%

COc1cc([N+](=O)[O-])ccc1NC(=O)NNC(=O)C(C)Oc1ccc(F)cc1F (stereo not drawn)
cell number change: 18.1% | AC50 [2]: 35.5 µM [rising, single point]

CCOC(=O)c1ccc(NC(=S)N(CCN(C)C)Cc2cccs2)cc1
cell number change: 76.1% | AC50 [1]: 2.31 µM [rising, full curve]

O=C(COC(=O)c1ccc(Cl)c(S(=O)(=O)N2CCCC2)c1)NC1CCCCC1
cell number change: 52.8%

COc1ccc(-c2ccc(NS(=O)(=O)c3cc([N+](=O)[O-])ccc3C)cc2)nn1
cell number change: -11.6% | AC50 [2]: 20.6 µM [rising, single point]

Cc1ccc(S(=O)(=O)N(C)C)cc1NC(=O)COC(=O)c1n[nH]c(=O)c2ccccc12
cell number change: 37.4%

Source: PubChem BioAssay AID2685 (National Center for Advancing Translational Sciences (NCATS), 2010)
